In PubChem BioAssay AID662 (National Center for Advancing Translational Sciences (NCATS), 2007):
“And” between values parts separate entries of the source, which are not always exact repeats. Equal values may be shown once. Some of the results follow. These are further read-outs of the screen, such as a control signal, another cell line or another target. No call is given for them. Compounds called inactive in the main read-out are mostly missing here. The note in brackets gives the kind of curve behind each potency; many fits are weak.

assay: Cell signaling CRE-BLA (Fsk stim); conditions: CHO CRE-bla reporter (cAMP response element driving beta-lactamase), forskolin EC10, beta-lactamase ratio; measured here: 460 nm blue channel
Outline: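 Modulation of forskolin-driven signalling is measured in CHO cells carrying a CRE-controlled beta-lactamase reporter. Cells are stimulated with EC10 NKH 477 in the presence of titrated compound for 3 h at 37 °C, then loaded with CCF4 for 2 h at room temperature.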

Row | SMILES | AC50
1 | CCCN1CC=C2C(C#N)=C(N)C(C#N)(C#N)C(c3cccc(OC)c3OC)C2C1 (stereo unspecified) | 12.6 µM [rising, partial curve]
2 | Fc1ccc(C(OCCCc2cnc[nH]2)c2ccc(F)cc2)cc1 | 15.8 µM [falling, partial curve]
3 | O=c1c(-c2ccc(F)c(F)c2)nc2cncnc2n1Cc1ccccc1 | 12.6 µM [rising, partial curve]
4 | COC(=O)CCC(=O)Oc1ccc(OC(=O)CCC(=O)OC)cc1 | 10 µM [falling, partial curve]
5 | NC(=O)c1ccc(-c2ccc(Br)cc2)o1 | 10 µM [rising, partial curve]
6 | COCCCn1c(=O)c2ccccc2c2ccccc2c1=O | 31.6 µM [falling, single point]
7 | Cc1nc2sc3c(c2c2nnc(SCC(=O)NCc4ccco4)n12)CCCC3 | 12.6 µM [rising, partial curve]
8 | Clc1ccc2c(c1)N=C(N1CCNCC1)c1ccccc1N2 | 31.6 µM [falling, single point]
9 | CCOc1nc(-c2ccc(OC)cc2)ccc1-c1noc(-c2cc(OC)c(OC)c(OC)c2)n1 | 15.8 µM [rising, single point]
10 | COc1ccc(-n2nc(C(=O)Nc3ccc4c(c3)OCO4)c3ccccc3c2=O)cc1 | 3.16 µM [rising, partial curve]
11 | CC1=C(C(=O)OCCOC(C)C)C(c2cccnc2)C2=C(CCCC2=O)N1 (stereo unspecified) | 12.6 µM [rising, single point]
12 | Cc1cnc(C(=O)Nc2ccc(N3CCOCC3)cc2)cn1 | 0.0501 µM [falling, partial curve, poor fit]
13 | COc1ccc(-c2cc(-c3cccs3)c(C#N)c(SCC(=O)NCc3ccco3)n2)cc1 | 3.16 µM [rising, partial curve]
14 | Cc1cc(NS(=O)(=O)c2ccccc2)n(-c2ccccc2)n1 | 25.1 µM [rising, single point]
15 | CCOC(=O)CSc1nnc(CSc2nc(C)cc(C)n2)n1Cc1ccco1 | 0.0316 µM [falling, partial curve]
16 | Cc1cc(C)n(-c2nc(-c3cccc(Cl)c3)cs2)n1 | 1 µM [rising, partial curve]
17 | COC(=O)CSc1nc(N)c(C#N)c(C(C)C)c1C#N | 25.1 µM [rising, single point]
18 | CCOC(=O)c1c2n(c3c(NCc4ccccc4)ncnc13)CCCC2 | 10 µM [rising, partial curve]
19 | c1cc2c(cc1-c1cnc3n1CCC3)OCCO2 | 7.94 µM [falling, partial curve]
20 | CCCn1c(=O)c2[nH]c(-c3ccccc3)nc2n(CCC)c1=O | 0.398 µM [rising, full curve, poor fit]
21 | CCCCC[C@H](CC(=O)NO)C(=O)N[C@@H](C(=O)N1CCC[C@H]1CO)C(C)C | 31.6 µM [rising, single point]
22 | Cc1nn(-c2ccccc2)c2sc(C(=O)N3CCCCC3)cc12 | 3.16 µM [rising, full curve]

Row | SMILES | AC50
23 | CCOC(=O)c1ccc(NC(=O)CC2C(=O)N(c3ccc(F)cc3)C(=O)N2CCCOC)cc1 (stereo unspecified) | 0.631 µM [falling, full curve, poor fit]
24 | Cc1ccc(CNc2ncc(-c3ccc4c(c3)OCO4)n2C)cc1 | 0.398 µM [falling, full curve]
25 | COC(=O)C1=C(C)N(CCC2=CCCCC2)C(=O)C1 | 12.6 µM [falling, single point]
26 | CCSc1nc2c(c(=O)n1Cc1ccccc1)SC(C)C2 (stereo unspecified) | 10 µM [rising, single point]
27 | COC(=O)Cc1nc2ccccc2[nH]1 | 10 µM [rising, partial curve]
28 | Cn1nnc2cc(C(=O)N3CCSCC3)ccc21 | 0.794 µM [rising, full curve]
29 | O=C(c1cc(-c2cccs2)on1)N1CCN(c2ccc(F)cc2)CC1 | 0.1 µM [falling, full curve]
30 | COc1ccc(NC(=O)c2ccc(S(=O)(=O)N3CCOCC3)cc2)c(OC)c1 | 3.16 µM [falling, single point]
31 | Cn1c(=O)c2cc(S(=O)(=O)Nc3ccc4c(c3)OCO4)ccc2n(C)c1=O | 0.00316 µM [falling, full curve, poor fit]
32 | Cc1ccc(-c2nnc3n2N=C(c2ccccc2)CS3)cc1 | 5.01 µM [rising, partial curve]
33 | N#CCC(=O)N1CCn2c1nc1ccccc12 | 5.01 µM [falling, single point]
34 | COc1cccc(C2C=C(c3cccs3)Nc3ncnn32)c1OC (stereo unspecified) | 12.6 µM [rising, partial curve]
35 | CCn1c(-c2ccc(OC)c(OC)c2)n[nH]c1=S | 10 µM [rising, partial curve]
36 | O=c1cc(-c2ccccc2)[nH]c2ccccc12 | 5.01 µM [rising, partial curve]
37 | COc1ccc(OC)c(C(c2nnnn2Cc2ccccc2)N2CCN(C3CCCCC3)CC2)c1 (stereo unspecified) | 5.01 µM [falling, single point]
38 | CN(C)CCCN1c2ccccc2Sc2ccc3ccccc3c21 | 5.01 µM [rising, single point]
39 | COc1cccc(/C(O)=C2/C(=O)C(=O)N(c3cc(C)on3)C2c2cccs2)c1 (stereo unspecified) | 3.16 µM [rising, single point]
40 | Cc1ccc(F)cc1NC(=O)c1cccc(N(C)C)c1 | 5.01 µM [falling, single point]
41 | CCOc1ccc(CCNC(=O)C2CCCN(C(=O)N(C)C)C2)cc1OCC (stereo unspecified) | 25.1 µM [falling, single point]
42 | COc1ccccc1N1CCN(C(=O)c2ccc3c(=O)n(Cc4ccco4)c(=S)[nH]c3c2)CC1 | 10 µM [rising, partial curve]
43 | COC(=O)c1c(-c2cccs2)csc1NC(=O)c1cccnc1 | 2 µM [rising, partial curve]
44 | CN1CCN(S(=O)(=O)c2cccc(C(=O)Nc3sc4c(c3C(N)=O)CCCC4)c2)CC1 | 1.26 µM [rising, full curve]

Quoted from the listing:
In AC50, `O=C(c1cc(-c2cccs2)on1)N1CCN(c2ccc(F)cc2)CC1` is listed with 0.1 µM [falling, full curve]
In AC50, `COc1ccccc1N1CCN(C(=O)c2ccc3c(=O)n(Cc4ccco4)c(=S)[nH]c3c2)CC1` is listed with 10 µM [rising, partial curve]
In AC50, `N#CCC(=O)N1CCn2c1nc1ccccc12` is listed with 5.01 µM [falling, single point]

(list continues)

Row | SMILES | AC50
45 | COc1ccccc1N1CCN(C(=O)c2cc(-c3cccc(Cl)c3)on2)CC1 | 25.1 µM [falling, single point]
46 | Cc1ccc(CNC(=O)c2cc3c(-c4ccc(Cl)cc4)nn(C)c3s2)o1 | 2.51 µM [rising, full curve, poor fit]
47 | NCCC[C@@H](CC(=O)N[C@@H]1CCCC[C@H]1C(=O)N[C@H](CC(=O)N[C@@H](CCC(=O)O)CC(=O)O)Cc1c[nH]c2ccccc12)NC(=O)C[C@H](CO)NC(=O)[C@@H]1CCCC[C@H]1N | 12.6 µM [falling, partial curve]
48 | Cc1ccc(C)c2[nH]c(=O)c(CCNC(=O)C(C)(C)C)cc12 | 5.01 µM [rising, single point]
49 | CCOC(=O)CSc1nc2ccc(N3CCOCC3)cc2c(=O)n1Cc1ccc2c(c1)OCO2 | 0.316 µM [rising, partial curve]
50 | CCCc1[nH]nc2c1C(c1ccc(OC)c(CSC3=NCCS3)c1)C(C#N)=C(N)O2 (stereo unspecified) | 12.6 µM [rising, partial curve]
51 | O=C(CCc1ccccc1)Nc1ncn[nH]1 | 1.58 µM [falling, partial curve]
52 | CCOC(=O)c1cc2c(N)c(C(=O)c3cc(C#N)c(SC)nc3C)sc2nc1C | 10 µM [rising, partial curve]
53 | CC(C)(C)c1cnnn1-c1ccc(NC(=O)c2ccc3c(c2)OCO3)cc1 | 10 µM [rising, partial curve]
54 | COc1ccccc1N1CCN(Cc2cc(Br)c(O)c3ncccc23)CC1 | 10 µM [falling, partial curve]
55 | C=CCn1c(Br)nc2c1c(=O)[nH]c(=O)n2C | 25.1 µM [rising, single point]
56 | COc1ccc(CCNC(=O)CCN2C(=O)COc3ccc(C)cc32)cc1OC | 10 µM [rising, partial curve]
57 | O=C(c1csc2c1CCCC2)N1CCN(c2ccccc2)CC1 | 0.0398 µM [falling, full curve, poor fit]
58 | Cc1cc(C)cc(NS(=O)(=O)c2ccc3[nH]cc(C(=O)NCc4ccco4)c(=O)c3c2)c1 | 25.1 µM [falling, single point]
59 | CN(c1ccccc1)S(=O)(=O)c1cc(C(=O)N2CCN(c3ccccn3)CC2)ccc1Cl | 0.0251 µM [falling, full curve, poor fit]
60 | O=c1c(-c2ccccc2)nc2cnc(N3CCNCC3)nc2n1Cc1ccc(F)cc1 | 2.51 µM [rising, full curve]
61 | COc1ccc(Oc2ncc3nc(-c4ccc(OC)cc4)c(=O)n(C)c3n2)cc1 | 15.8 µM [rising, partial curve]
62 | Cc1cc(C)c(NC(=O)c2cc3c(nc4sccn43)s2)c(C)c1 | 1 µM [rising, full curve, poor fit]
63 | COc1ccc(CCN(C)CCc2ccc(OC)c(OC)c2)cc1OC | 0.794 nM [falling, full curve, poor fit] and 12.6 µM [rising, partial curve, poor fit]
64 | Cc1ccccc1-c1nc(CN2CCC(C(=O)NCc3ccco3)CC2)c(C)o1 | 5.01 µM [falling, single point]
65 | COc1ccc(C)cc1NC(=O)c1nnn(Cc2cc(C)ccc2C)c1N | 3.16 µM [rising, full curve, poor fit]
66 | CCc1ccc(S(=O)(=O)c2n[nH]n3c2nc(=O)c2ccccc23)cc1 | 0.02 µM [rising, full curve, poor fit]

Part of the list above in order of number of heavy atoms, descending.
Row | SMILES | AC50
45 | COc1ccccc1N1CCN(C(=O)c2cc(-c3cccc(Cl)c3)on2)CC1 | 25.1 µM [falling, single point]
54 | COc1ccccc1N1CCN(Cc2cc(Br)c(O)c3ncccc23)CC1 | 10 µM [falling, partial curve]
57 | O=C(c1csc2c1CCCC2)N1CCN(c2ccccc2)CC1 | 0.0398 µM [falling, full curve, poor fit]
